In article PMC5601897, “The catalytic subunit of DNA polymerase δ inhibits γTuRC activity and regulates Golgi-derived microtubules” (Nature Communications, 2017):
These are yes or no findings as the source states them, for the method shown. Binding seen in cells or lysates may run through a third protein. Some results given as binding are weak or reduced against the parent protein; the word gives no strength.

Sequences of proteins named here, by UniProt entry; tags and fusion partners are left off. A change or cut given only in a name is not applied to a line headed by its entry. A line that says so, or that is headed by a name, gives the form on record, which may keep a tag or linker.
UniProt Q9UGJ1: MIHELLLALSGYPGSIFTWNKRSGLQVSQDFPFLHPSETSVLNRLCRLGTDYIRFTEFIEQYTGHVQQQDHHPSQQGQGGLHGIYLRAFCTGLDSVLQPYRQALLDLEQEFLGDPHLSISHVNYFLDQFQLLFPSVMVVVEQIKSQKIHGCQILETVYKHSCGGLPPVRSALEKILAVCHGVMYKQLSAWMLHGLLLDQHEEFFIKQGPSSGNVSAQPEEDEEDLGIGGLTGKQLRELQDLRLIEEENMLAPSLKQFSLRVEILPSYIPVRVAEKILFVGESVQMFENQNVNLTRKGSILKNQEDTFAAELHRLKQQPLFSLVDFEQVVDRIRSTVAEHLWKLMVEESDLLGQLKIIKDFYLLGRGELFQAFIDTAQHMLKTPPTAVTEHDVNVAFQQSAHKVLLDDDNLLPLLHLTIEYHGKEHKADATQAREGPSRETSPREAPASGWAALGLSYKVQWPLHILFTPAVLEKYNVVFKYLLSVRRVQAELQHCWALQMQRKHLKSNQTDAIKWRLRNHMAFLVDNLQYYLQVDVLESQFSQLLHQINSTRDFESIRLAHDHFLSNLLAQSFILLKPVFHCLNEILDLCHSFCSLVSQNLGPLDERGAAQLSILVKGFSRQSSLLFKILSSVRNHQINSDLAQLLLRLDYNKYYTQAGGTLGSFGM
UniProt P28340: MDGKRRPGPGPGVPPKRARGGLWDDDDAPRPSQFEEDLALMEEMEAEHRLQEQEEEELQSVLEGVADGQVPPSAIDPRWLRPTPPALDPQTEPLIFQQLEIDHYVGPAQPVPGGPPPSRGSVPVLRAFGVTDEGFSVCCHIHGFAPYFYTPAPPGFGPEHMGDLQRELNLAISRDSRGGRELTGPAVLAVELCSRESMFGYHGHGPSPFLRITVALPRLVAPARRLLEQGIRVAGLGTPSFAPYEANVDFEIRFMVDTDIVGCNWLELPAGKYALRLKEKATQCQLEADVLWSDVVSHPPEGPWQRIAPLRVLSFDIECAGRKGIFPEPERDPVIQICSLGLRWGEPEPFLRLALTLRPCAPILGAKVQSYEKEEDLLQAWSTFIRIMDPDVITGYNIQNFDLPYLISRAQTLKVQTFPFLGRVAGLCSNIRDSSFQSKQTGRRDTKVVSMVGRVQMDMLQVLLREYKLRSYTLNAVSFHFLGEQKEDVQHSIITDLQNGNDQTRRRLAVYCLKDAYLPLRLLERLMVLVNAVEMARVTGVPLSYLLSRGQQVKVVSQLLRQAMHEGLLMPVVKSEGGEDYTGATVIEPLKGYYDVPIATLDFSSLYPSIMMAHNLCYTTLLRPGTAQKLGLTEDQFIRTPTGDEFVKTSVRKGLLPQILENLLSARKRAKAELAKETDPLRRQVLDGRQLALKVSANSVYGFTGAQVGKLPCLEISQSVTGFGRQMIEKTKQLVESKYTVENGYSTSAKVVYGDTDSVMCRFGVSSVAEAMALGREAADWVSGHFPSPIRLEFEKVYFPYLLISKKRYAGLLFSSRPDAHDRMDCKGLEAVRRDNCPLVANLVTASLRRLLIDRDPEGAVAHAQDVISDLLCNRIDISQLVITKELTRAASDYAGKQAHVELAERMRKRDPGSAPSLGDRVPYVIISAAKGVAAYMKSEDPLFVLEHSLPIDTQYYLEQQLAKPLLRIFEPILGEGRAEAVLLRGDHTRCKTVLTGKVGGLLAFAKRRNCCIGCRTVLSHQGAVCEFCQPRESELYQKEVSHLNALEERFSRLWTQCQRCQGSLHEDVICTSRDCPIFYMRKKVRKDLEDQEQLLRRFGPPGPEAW
FLAG-PolD1 S605del, ectopically expressed (P28340, form named): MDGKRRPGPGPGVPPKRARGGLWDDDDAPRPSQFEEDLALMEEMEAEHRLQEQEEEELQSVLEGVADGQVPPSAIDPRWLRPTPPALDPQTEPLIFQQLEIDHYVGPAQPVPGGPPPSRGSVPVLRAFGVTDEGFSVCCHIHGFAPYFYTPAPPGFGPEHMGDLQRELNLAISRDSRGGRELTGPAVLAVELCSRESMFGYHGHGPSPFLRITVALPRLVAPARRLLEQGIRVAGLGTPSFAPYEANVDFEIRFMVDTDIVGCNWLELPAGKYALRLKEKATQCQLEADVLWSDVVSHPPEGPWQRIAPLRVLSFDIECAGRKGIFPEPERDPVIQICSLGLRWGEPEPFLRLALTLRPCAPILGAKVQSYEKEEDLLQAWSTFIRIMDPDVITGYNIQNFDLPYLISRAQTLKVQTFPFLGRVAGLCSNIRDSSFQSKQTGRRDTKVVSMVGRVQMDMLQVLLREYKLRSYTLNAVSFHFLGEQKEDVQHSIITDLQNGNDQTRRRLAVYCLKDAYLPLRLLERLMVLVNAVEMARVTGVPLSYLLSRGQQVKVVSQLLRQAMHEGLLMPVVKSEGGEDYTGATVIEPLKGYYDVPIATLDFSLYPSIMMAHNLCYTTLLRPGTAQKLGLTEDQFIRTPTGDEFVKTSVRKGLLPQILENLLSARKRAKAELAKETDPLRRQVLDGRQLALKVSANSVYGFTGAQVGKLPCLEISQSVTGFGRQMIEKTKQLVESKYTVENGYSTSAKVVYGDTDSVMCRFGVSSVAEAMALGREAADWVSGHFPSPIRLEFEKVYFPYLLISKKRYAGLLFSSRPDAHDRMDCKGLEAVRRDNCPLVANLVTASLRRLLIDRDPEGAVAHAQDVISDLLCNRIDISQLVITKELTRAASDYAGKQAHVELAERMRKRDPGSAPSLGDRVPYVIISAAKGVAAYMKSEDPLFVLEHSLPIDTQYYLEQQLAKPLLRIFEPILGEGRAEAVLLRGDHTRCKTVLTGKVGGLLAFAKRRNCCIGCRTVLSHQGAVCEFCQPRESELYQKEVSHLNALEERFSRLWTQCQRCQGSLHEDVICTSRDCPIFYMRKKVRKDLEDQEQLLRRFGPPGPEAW
UniProt Q96CW5: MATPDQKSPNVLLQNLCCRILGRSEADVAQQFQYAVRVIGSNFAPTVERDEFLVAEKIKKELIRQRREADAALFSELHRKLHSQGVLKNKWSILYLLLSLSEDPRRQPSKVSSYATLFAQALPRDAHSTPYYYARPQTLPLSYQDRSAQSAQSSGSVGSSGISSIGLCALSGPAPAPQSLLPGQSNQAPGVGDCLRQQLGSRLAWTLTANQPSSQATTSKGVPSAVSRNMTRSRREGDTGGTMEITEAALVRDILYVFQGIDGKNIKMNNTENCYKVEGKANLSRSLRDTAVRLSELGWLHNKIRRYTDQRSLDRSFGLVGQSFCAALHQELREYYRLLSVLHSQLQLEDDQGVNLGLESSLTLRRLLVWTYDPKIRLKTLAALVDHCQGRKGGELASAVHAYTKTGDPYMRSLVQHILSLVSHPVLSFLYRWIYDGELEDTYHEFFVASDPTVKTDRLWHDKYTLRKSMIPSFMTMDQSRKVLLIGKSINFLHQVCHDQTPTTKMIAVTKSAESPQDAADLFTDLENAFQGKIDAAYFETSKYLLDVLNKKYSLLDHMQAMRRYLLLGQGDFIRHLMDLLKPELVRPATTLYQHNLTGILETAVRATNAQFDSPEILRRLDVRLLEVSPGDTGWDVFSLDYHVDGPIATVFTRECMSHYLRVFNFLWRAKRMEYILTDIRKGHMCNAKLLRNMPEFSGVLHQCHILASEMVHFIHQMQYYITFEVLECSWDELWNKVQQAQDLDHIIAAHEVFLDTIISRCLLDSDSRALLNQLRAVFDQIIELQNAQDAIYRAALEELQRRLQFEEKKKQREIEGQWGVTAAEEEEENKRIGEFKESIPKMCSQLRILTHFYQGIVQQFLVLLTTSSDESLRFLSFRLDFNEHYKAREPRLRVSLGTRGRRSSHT
UniProt Q96RT8: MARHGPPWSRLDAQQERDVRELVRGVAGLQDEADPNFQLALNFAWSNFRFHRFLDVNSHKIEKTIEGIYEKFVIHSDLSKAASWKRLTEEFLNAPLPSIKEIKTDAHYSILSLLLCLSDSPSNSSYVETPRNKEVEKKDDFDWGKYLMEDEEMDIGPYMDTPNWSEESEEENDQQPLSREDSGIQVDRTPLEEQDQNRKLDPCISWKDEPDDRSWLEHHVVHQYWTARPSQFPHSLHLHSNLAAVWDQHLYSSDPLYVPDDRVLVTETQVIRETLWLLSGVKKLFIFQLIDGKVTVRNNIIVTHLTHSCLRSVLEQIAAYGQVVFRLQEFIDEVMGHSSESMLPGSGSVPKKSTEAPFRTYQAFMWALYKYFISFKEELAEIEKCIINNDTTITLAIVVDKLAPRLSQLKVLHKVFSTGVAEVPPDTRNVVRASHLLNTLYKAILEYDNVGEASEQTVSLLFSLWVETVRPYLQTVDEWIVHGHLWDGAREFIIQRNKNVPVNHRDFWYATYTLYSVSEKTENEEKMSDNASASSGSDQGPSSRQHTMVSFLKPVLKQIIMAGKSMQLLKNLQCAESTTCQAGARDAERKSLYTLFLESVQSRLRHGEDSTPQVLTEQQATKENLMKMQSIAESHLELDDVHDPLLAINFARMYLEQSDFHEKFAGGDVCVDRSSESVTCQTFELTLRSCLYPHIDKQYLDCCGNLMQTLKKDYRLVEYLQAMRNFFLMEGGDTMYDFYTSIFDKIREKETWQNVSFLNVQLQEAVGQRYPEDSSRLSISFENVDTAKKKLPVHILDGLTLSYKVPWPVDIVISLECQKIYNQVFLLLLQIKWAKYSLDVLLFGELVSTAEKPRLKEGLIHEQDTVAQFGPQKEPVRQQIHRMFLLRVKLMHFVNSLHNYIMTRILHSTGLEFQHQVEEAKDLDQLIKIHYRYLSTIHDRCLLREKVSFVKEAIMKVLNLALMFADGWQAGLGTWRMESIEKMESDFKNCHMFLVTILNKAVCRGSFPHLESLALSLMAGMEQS
UniProt P49005: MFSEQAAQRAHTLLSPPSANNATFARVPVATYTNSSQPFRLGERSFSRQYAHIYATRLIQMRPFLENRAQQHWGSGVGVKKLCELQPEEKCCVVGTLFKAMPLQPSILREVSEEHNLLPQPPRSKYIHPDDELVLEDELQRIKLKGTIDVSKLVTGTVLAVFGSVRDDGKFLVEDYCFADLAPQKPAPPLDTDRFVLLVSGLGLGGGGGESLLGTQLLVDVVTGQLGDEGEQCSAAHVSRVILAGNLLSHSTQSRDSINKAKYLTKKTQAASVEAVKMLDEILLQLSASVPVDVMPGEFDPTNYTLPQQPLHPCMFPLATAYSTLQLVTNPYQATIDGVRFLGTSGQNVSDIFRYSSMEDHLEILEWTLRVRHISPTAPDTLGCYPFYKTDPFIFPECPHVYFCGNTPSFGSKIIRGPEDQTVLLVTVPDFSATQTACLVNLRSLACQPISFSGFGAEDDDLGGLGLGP

Assays:
[1] = molecular target: GCP4, endogenous (human (endogenous in HEK293T)) (UniProt Q9UGJ1); assay: co-IP; endogenous proteins; HEK293T cell extracts (lysis buffer with 0.5% IGEPAL CA-630), anti-GCP6 or anti-GCP4 on Protein A-agarose, 4 °C, 2 h; normal rabbit IgG as control; cells with control or pold1-targeting siRNAs for anti-GCP4; immunoblot
[2] = molecular target: GCP6, endogenous (human (endogenous in HEK293T)) (UniProt Q96RT7); assay: as above
[3] = molecular target: FLAG-PolD1 S605del, ectopically expressed (human) (UniProt P28340); assay: co-IP; FLAG-tagged PolD1, its mutants or fragments expressed in HEK293T cells; anti-FLAG M2 beads in extracts (0.5% IGEPAL CA-630), 4 °C, 2 h; cells with control or GCP4-specific siRNA in Fig. 1c; immunoblot of endogenous partners
[4] = molecular target: FLAG-PolD1 (wild type), ectopically expressed (human) (UniProt P28340); assay: as above
[5] = molecular target: FLAG-PolD1 D515V, ectopically expressed (human) (UniProt P28340); assay: as above

Row | binding [1] | binding [2] | binding [3] | binding [4] | binding [5] | Substance
1 | binds | binds |  |  |  | DNA polymerase δ catalytic subunit (PolD1), endogenous (from UniProt P28340 1-1107)
2 |  |  | binds | binds | binds | GCP3, endogenous (from UniProt Q96CW5 1-907)
3 |  |  | binds | binds | binds | GCP5, endogenous (from UniProt Q96RT8 1-1024)

The remaining lines, values behind:

Row | Substance | binding [1] | binding [2] | binding [3] | binding [4] | binding [5]
4 | GCP4, endogenous (from UniProt Q9UGJ1 1-667) |  |  | binds | binds | binds
5 | GCP6, endogenous (from UniProt Q96RT7 1-1819) | binds |  | binds | binds | binds
6 | PolD2, endogenous (from UniProt P49005 1-469) |  |  |  | binds | 
